Assay results

From PubChem BioAssay record AID1508623 (NCATS, 2021).

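Change in HTT-promoter-driven luminescence in engineered HEK293 reporter cells after a 24 h treatment, measured at one concentration. Percent change in reporter signal versus vehicle (0%) down to no light (-100%); more negative values mean stronger inhibition of promoter activity.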

Values are in %. Common to all entries: at 57.5 µM (top of the series). Only part of the assay is listed here, not a random draw.

{"compound": "Cc1ccc(NC(=O)c2ccc3c(c2)NC(=O)c2ccccc2S3)cc1", "activity change (%)": "-92.76"}
{"compound": "O=S(=O)(Nc1ccc(-c2ccc(N3CCCC3)nn2)cc1)c1ccc(Cl)cc1", "activity change (%)": "-10.76"}
{"compound": "CCOC(=O)CSc1nnc(-c2ccc(OC)cc2)o1", "activity change (%)": "-50.07"}
{"compound": "Cc1nc2ccn(Cc3cccs3)c(=O)c2cc1C(=O)NCc1ccccc1", "activity change (%)": "-41.76"}
{"compound": "Cc1ccc(CNC(=O)CCc2c(C)nn(-c3ccc(N4CCCCC4)nn3)c2C)cc1", "activity change (%)": "-31.03"}
{"compound": "COc1cc2c(-c3cc(Br)ccc3O)nc3c(c(C)nn3-c3ccccc3)c2cc1OC", "activity change (%)": "-11.56"}
{"compound": "COc1ccc2c(C)c(CCC(=O)NCCc3ccc(Cl)cc3)c(=O)oc2c1", "activity change (%)": "-42.42"}
{"compound": "COc1cccc(-c2cc(C(=O)Nc3cccnc3Cl)no2)c1", "activity change (%)": "18.32"}
{"compound": "CCOc1ccc2nc(Cl)c(C3CC(c4ccc(OC)cc4)=NN3S(C)(=O)=O)cc2c1", "stereo": "centres undefined", "activity change (%)": "-21.6"}
{"compound": "COc1cc(C2C(=O)N(C3CCCCC3)CC(=O)N2C2CCCCC2)ccc1OC(C)C", "stereo": "centres undefined", "activity change (%)": "-7.67"}
{"compound": "COc1ccc(NC(=O)CN2C(=O)C(=O)c3ccccc32)c(OC)c1", "activity change (%)": "-0.8135"}
{"compound": "O=S1(=O)N=C(Nc2cccc(C(F)(F)F)c2)c2ccccc21", "activity change (%)": "-35.6"}
{"compound": "Cc1c(CC(=O)NCc2ccccc2Cl)c(=O)oc2cc(O)ccc12", "activity change (%)": "-11.68"}
{"compound": "CC(=O)c1cc(-c2ccccc2)n(CC(=O)NCc2ccccc2C)c1C", "activity change (%)": "-19.85"}
{"compound": "CCCc1cc(=O)oc2c(C)c3c(cc12)CN(CCc1ccc(Cl)cc1)CO3", "activity change (%)": "-20.28"}
{"compound": "COc1ccc(Cl)cc1NC(=O)c1cc2ccccn2n1", "activity change (%)": "24.34"}
{"compound": "Nc1nonc1-c1nc2ccccc2n1CC(=O)Nc1cccc(Cl)c1Cl", "activity change (%)": "-33.07"}
{"compound": "O=C(NCc1ccc(Cl)cc1)C1CCN(S(=O)(=O)Cc2ccccc2)CC1", "activity change (%)": "-17.01"}
{"compound": "Cc1ccc(NS(=O)(=O)c2ccc(-c3cc(C)no3)cc2)c(Br)c1", "activity change (%)": "-53.25"}
{"compound": "CCCOc1ccc(C2C(=O)N(C3CCC(C)CC3)CC(=O)N2CCc2ccccc2)cc1OC", "stereo": "centres undefined", "activity change (%)": "-16.71"}
{"compound": "CCc1ccc(S(=O)(=O)Nc2ccc(-c3ccc(N4CCCCCC4)nn3)cc2)cc1", "activity change (%)": "-0.9617"}
{"compound": "C=CCc1ccccc1OCCSc1nc(-c2cccs2)nc2cc(=O)[nH]n12", "activity change (%)": "-8.718"}
{"compound": "Cc1ccc(-c2cc(C(=O)Nc3cc([N+](=O)[O-])ccc3C)no2)cc1F", "activity change (%)": "-11.55"}
{"compound": "CCOC(=O)c1ccc(N2CCN(c3cc(Cl)ccc3C)CC2)c(NC(=O)Nc2cccc(OC)c2)c1", "activity change (%)": "-28.49"}
{"compound": "CCOC(=O)c1cc(C)n(CC2CCC(C(=O)Nc3ccccc3OC)CC2)c1C", "stereo": "centres undefined", "activity change (%)": "-39.81"}
{"compound": "COc1cc2c(-c3ccccc3Cl)nc3c(c(C)nn3-c3ccccc3)c2cc1OC", "activity change (%)": "-26.46"}
{"compound": "COc1cc(C2C(=O)N(C3CCC(C)CC3)CC(=O)N2CCc2ccc(Cl)cc2)ccc1OC(C)C", "stereo": "centres undefined", "activity change (%)": "-13.03"}
{"compound": "CCOc1ccc(S(=O)(=O)Nc2ccc(-c3ccc(N4CCCC4)nn3)cc2)cc1", "activity change (%)": "-4.514"}
{"compound": "COC(=O)c1cc2oc3ccccc3c2n1CC(=O)Nc1ccc(Cl)cc1F", "activity change (%)": "25.28"}
{"compound": "Cc1ccc(NC(=O)c2c(C)oc3ccc(O)c(CN4CCN(Cc5ccccc5)CC4)c23)cc1", "activity change (%)": "-26.17"}
{"compound": "CC1Cc2cc(S(=O)(=O)NCCc3ccccc3)ccc2N1C(=O)C1CCC1", "stereo": "centres undefined", "activity change (%)": "-59.03"}
{"compound": "COc1ccccc1CNC(=O)c1cc2c(=O)n(Cc3cccs3)ccc2nc1C", "activity change (%)": "-51.65"}
{"compound": "CCOc1ccc(C2C(=O)N(C3CCCCCC3)CC(=O)N2CCC2=CCCCC2)cc1OC", "stereo": "centres undefined", "activity change (%)": "-44.21"}
{"compound": "CCOc1ccc(C2C(=O)N(C3CCCCC3)CC(=O)N2CCC2=CCCCC2)cc1OC", "stereo": "centres undefined", "activity change (%)": "-0.2061"}
{"compound": "Cc1ccc(CNC(=O)C2CCN(S(=O)(=O)Cc3ccccc3)CC2)cc1", "activity change (%)": "-26.91"}
{"compound": "CCc1ccc(NC(=O)CC2C(=O)N(c3cccc(C)c3)C(=O)N2CCC(C)C)cc1", "stereo": "centres undefined", "activity change (%)": "-49.92"}
{"compound": "CCOc1ccccc1NS(=O)(=O)c1ccc2c(c1)CC(C)N2C(=O)C1CCC1", "stereo": "centres undefined", "activity change (%)": "-62.52"}
{"compound": "Cn1c(=O)n(C)c2cc(NS(=O)(=O)c3ccc(Cl)cc3)c(NCc3ccccc3)cc21", "activity change (%)": "64.32"}

Repeated from the top, 3 entries:

{"compound": "Cc1ccc(NC(=O)c2ccc3c(c2)NC(=O)c2ccccc2S3)cc1", "activity change (%)": "-92.76"}
{"compound": "O=S(=O)(Nc1ccc(-c2ccc(N3CCCC3)nn2)cc1)c1ccc(Cl)cc1", "activity change (%)": "-10.76"}
{"compound": "CCOC(=O)CSc1nnc(-c2ccc(OC)cc2)o1", "activity change (%)": "-50.07"}